Measurements as given in the supplement of paper PMC5949888.
± gives the standard deviation of the averaged measurements. Most values lie at the floor of the assay. Slopes are relative: functional sequences can read slightly below zero.

Tested on: Saccharomyces cerevisiae PS128 hsf1 delta, HSF1(1-493) fusion
Assay: growth estimate (transactivation domain function in HSF1 fusion, heat-shock survival) (a.u. (slope of normalised read count over time)); higher = stronger growth at 37°C, i.e. more transactivation activity
Details: library: random library

| Substance | growth estimate |
| --- | --- |
| TLVV | < -0.25 |
| TLWESRGVI | < -0.25 |
| TLYGCAALGSGDLSVGHPML | < -0.25 |
| TMA | < -0.25 |
| TMEFRVMSRADLQSEERGRP | < -0.25 |
| TMKAVEGVVTLTDFGVLEVK | < -0.25 |
| TMKQ | < -0.25 |
| TMLDIFTSQAERCLGRSTAR | < -0.25 |
| TMLGTVRLETRETVRALNTG | < -0.25 |
| TMMQHRNWVEFTGWIGGSLH | < -0.25 |
| TMSVVESQRELI | < -0.25 |
| TMTR | < -0.25 |
| TNAAVRLFLRRDSINAGTKR | < -0.25 |
| TNAPSLACYGSSHSTIRSSG | < -0.25 |
| TNAQVSI | < -0.25 |
| TNCALRSVIALYNRRLPHIV | < -0.25 |
| TNLIN | < -0.25 |
| TNLST | < -0.25 |
| TNMFGPGYGIIALLKAFRPF | < -0.25 |
| TNPGV | < -0.25 |
| TNPLRLHDFDPMIDCERLRG | < -0.25 |
| TNPT | < -0.25 |
| TNRDSGLR | < -0.25 |
| TNRG | < -0.25 |
| TNRVDPPEGPKRRRHSR | -0.243 |

| Substance | growth estimate |
| --- | --- |
| TNSAT | < -0.25 |
| TNSRGCRAINSLMFRWNQVI | < -0.25 |
| TNTFKKSSS | -0.248 |
| TNTGAVIRNAEKAPPWDARN | < -0.25 |
| TNVVGFRAGSSCCT | < -0.25 |
| TPALTGRNERRAGPLILLFQ | < -0.25 |
| TPAMRYTGIQKPDRSLVSNT | < -0.25 |
| TPCQASITLLGPRTSGPRVH | < -0.25 |
| TPFALASCHGRSVVSG | < -0.25 |
| TPFK | < -0.25 |
| TPFKNAWTLNDFC | < -0.25 |
| TPFKVSLLVSEPCRVRGFTV | < -0.25 |
| TPG | < -0.25 |
| TPGFRRSDR | < -0.25 |
| TPGIEIERVNVLPVAL | -0.21 |
| TPL | < -0.25 |
| TPLLAGLRR | < -0.25 |
| TPMTVSINSQEKPPTASSPL | < -0.25 |
| TPPGLRDRAKRGRDAMPVI | < -0.25 |
| TPPVPRRRMG | < -0.25 |
| TPPWWRVV | < -0.25 |
| TPQSGKEFFILPANFRGRV | < -0.25 |
| TPR | < -0.25 |
| TPRAGGSWCTLT | < -0.25 |
| TPRAQ | < -0.25 |

| Substance | growth estimate |
| --- | --- |
| TPRAYTEKDYGLEYAANHFV | < -0.25 |
| TPRPSGLETGSLRQSQSLKF | < -0.25 |
| TPRRSNHAEAETPLRKLTRR | < -0.25 |
| TPRTCTSRGIPLYPVPVMVP | < -0.25 |
| TPSGC | < -0.25 |
| TPSHRPA | < -0.25 |
| TPSIKREAIA | < -0.25 |
| TPSSVIAFLYPLSELR | < -0.25 |
| TPTLRVQEALSFPLTPVIIA | < -0.25 |
| TPV | < -0.25 |
| TPVEPAKPNTWGGGHADLGH | < -0.25 |
| TPWMVKQT | < -0.25 |
| TQAEPRHI | < -0.25 |
| TQAGVVMGGGLDGSFTNIAY | < -0.25 |
| TQCFSIVP | < -0.25 |
| TQEIIGCY | < -0.25 |
| TQENKRRDT | < -0.25 |
| TQEPSIRDRVASANLLVAFT | < -0.25 |
| TQFCRLI | < -0.25 |
| TQFRWRLANNAPLDLRLSPR | < -0.25 |
| TQGNLGYLSKRKRPRSVYSG | < -0.25 |
| TQHTFGIPASKRIRGNQGRL | < -0.25 |
| TQLELDAYWRTSIASP | < -0.25 |
| TQLGGLDYSLRTKGTHTIIG | < -0.25 |
| TQLSHRAKGSNAPSLAHLIR | < -0.25 |

| Substance | growth estimate |
| --- | --- |
| TQLSQAWGLQSNRYLPARF | < -0.25 |
| TQNSNTELGSLYQASGASKM | < -0.25 |
| TQRGTGHAPMGWRDYTWYDE | 0.183 |
| TQRRMWYWMDEICRSDAARS | < -0.25 |
| TQRTSTFLPFRLGRYSSPAV | < -0.25 |
| TQSHGICPREAQTGATPARL | < -0.25 |
| TQTASVTVSPGYEEHAIYVS | -0.25 |
| TQVGRRDDNVRVEVVSVAVF | < -0.25 |
| TQWPRDNLR | < -0.25 |
| TQYPCGKITSCLEKSVGSPA | < -0.25 |
| TRACSGYC | < -0.25 |
| TRADQEQRSLFGVLE | < -0.25 |
| TRAMSSTAGSRSEPCRVFPR | < -0.25 |
| TRC | < -0.25 |
| TRCHSLVPRVIHPSRHGYIN | < -0.25 |
| TRFLTSNMHSSVGLFACLRS | < -0.25 |
| TRFRFNMFRYQQFRTDTTGR | < -0.25 |
| TRGIGQFSGTRRRHTCS | < -0.25 |
| TRGLGFVKSLEWVSPNGLFW | < -0.25 |
| TRGLVKFLAGER | < -0.25 |
| TRGPEFFCSDDPVGP | < -0.25 |
| TRGPLSGGLSTMLRVWELSG | < -0.25 |
| TRGQHEVPPSEGCGL | < -0.25 |
| TRGSEGTTRFS | < -0.25 |
| TRGSSEGEPAKISVHGSLLP | < -0.25 |

Single entries from the list.
TQENKRRDT | growth estimate: < -0.25
TPFKNAWTLNDFC | growth estimate: < -0.25
TRFLTSNMHSSVGLFACLRS | growth estimate: < -0.25
TPSHRPA | growth estimate: < -0.25
TNSRGCRAINSLMFRWNQVI | growth estimate: < -0.25
TRFRFNMFRYQQFRTDTTGR | growth estimate: < -0.25
TPV | growth estimate: < -0.25

The list continues.

| Substance | growth estimate |
| --- | --- |
| TRGVVQGSIECPGALRPLRI | < -0.25 |
| TRGYHIEYTNHPGGE | < -0.25 |
| TRHDGETGHRIRSTSVSRYT | < -0.25 |
| TRIRRYARMEAITPTLGLST | < -0.25 |
| TRKAPYIRLAGRSVRLERSC | < -0.25 |
| TRKPLGLFCPEIEVPGEVWN | < -0.25 |
| TRL | < -0.25 |
| TRLDSRLQLI | < -0.25 |
| TRLEGRLKGRGLREIIWSLC | < -0.25 |
| TRLGGFSMESVRMTQATGAH | < -0.25 |
| TRLIIPGASGALNLLRVKAP | < -0.25 |
| TRLNKDANLQQGW | < -0.25 |
| TRLNVSIVPGPLFGGRVLRA | < -0.25 |
| TRLTSAET | < -0.25 |
| TRNGGP | < -0.25 |
| TRPMGGAVNSPERTMYQNDS | < -0.25 |
| TRPN | < -0.25 |
| TRQR | < -0.25 |
| TRR | < -0.25 |
| TRRPLKFNELVESIYHRE | < -0.25 |
| TRRPSRPSSISMIVPGLVSF | < -0.25 |
| TRRRMGSSSTGDSDSSERSR | < -0.25 |
| TRS | -0.248 ± 0.0039 |
| TRSG | < -0.25 |
| TRSIYNFLIRVVLV | < -0.25 |

| Substance | growth estimate |
| --- | --- |
| TRSRCPCQTDCGTSWSTRTS | < -0.25 |
| TRSS | < -0.25 |
| TRSSICTQTLVNSRVYPTRA | < -0.25 |
| TRSVWQKVRTTTSVVAIGNP | < -0.25 |
| TRTKNDAGP | -0.246 |
| TRTKSMEKRIEIVGAAYLMP | -0.225 |
| TRTYARL | < -0.25 |
| TRVFGSSPLGLFRFDAEALA | < -0.25 |
| TRVIRPGSCLHRIALRRSTA | < -0.25 |
| TRVLLIMYGRGLTDSYDVTH | < -0.25 |
| TRVPERGLLLWELFICPNHK | < -0.25 |
| TRVYEARLRGPTSKSSLSPG | < -0.25 |
| TRWVLK | < -0.25 |
| TRYGQKYRQ | -0.241 |
| TRYHLRTTRARQDGLYLRTP | < -0.25 |
| TRYLLSPSFKVFASSFLS | < -0.25 |
| TRYNPYQARPPAGLAVASHL | < -0.25 |
| TRYRNCQC | < -0.25 |
| TSA | < -0.25 |
| TSAPCLRIRWPGTNLNLAYK | < -0.25 |
| TSAPTFGRKNSGTF | < -0.25 |
| TSCAHLAVHQKSSPLGNSAR | < -0.25 |
| TSDDVRSSKSYTFNNCAKGP | < -0.25 |
| TSDELCRRNGKCFARLSAYV | < -0.25 |
| TSDVVRPQTLKSGCNRDLEV | < -0.25 |

Retrieved one by one from the list above:

| Substance | growth estimate |
| --- | --- |
| TSDELCRRNGKCFARLSAYV | < -0.25 |
| TRVPERGLLLWELFICPNHK | < -0.25 |

Continued.

| Substance | growth estimate |
| --- | --- |
| TSEANSGV | < -0.25 |
| TSEMEINGVNRRIASWCHGT | < -0.25 |
| TSESGRYDRR | < -0.25 |
| TSGFNVRLCSSLADNRLPSR | < -0.25 |
| TSGLKSYTLWWSLSKKVAGD | < -0.25 |
| TSGNCLRAG | < -0.25 |
| TSGSWTADKTRGWSAWNSDG | < -0.25 |
| TSGTLRLDYLRWSVMLA | < -0.25 |
| TSHAYVRRPRLNGSSRFAKD | < -0.25 |
| TSHKTLR | < -0.25 |
| TSLFLVEVAAAVAASNWRRL | < -0.25 |
| TSLSIGRSFETRLCRRHVAA | < -0.25 |
| TSLVGLSLWLPNLSKDYMYR | < -0.25 |
| TSNGPDIRYPAAVGAHSTHI | < -0.25 |
| TSPGCMDTVTLYEPKHSSHD | < -0.25 |
| TSQRFPPTVTEQ | < -0.25 |
| TSRHLHRAIGICMAK | < -0.25 |
| TSRTPLHLSVL | < -0.25 |
| TSSASGAGQCRCIGGRSPLP | < -0.25 |
| TSSFFIQRLGYPLPGAVAWA | < -0.25 |
| TSTKIEPPPGTDATKA | < -0.25 |
| TSTP | < -0.25 |
| TSTVLKCRGQTSSSGLANIA | < -0.25 |
| TSV | < -0.25 |
| TSVGTLFRLRTQ | < -0.25 |

| Substance | growth estimate |
| --- | --- |
| TSVILERPA | < -0.25 |
| TSVRFYLSAVIDC | < -0.25 |
| TSVSVRSRF | < -0.25 |
| TSWVLGTAKRASGPP | < -0.25 |
| TSYYI | -0.0463 |
| TTAL | < -0.25 |
| TTALHGS | < -0.25 |
| TTALRHSCAFGGKYPGSRWL | < -0.25 |
| TTAQGSRSCHTVPRSRLWLE | < -0.25 |
| TTDSHTERRTRC | < -0.25 |
| TTGCGMQNTPVCIEPRYVVG | < -0.25 |
| TTGFYVMCTIQPV | < -0.25 |
| TTGS | -0.241 |
| TTGSQGSTRCRVCGLPYGRS | < -0.25 |
| TTIADW | < -0.25 |
| TTK | -0.243 |
| TTLGPYADVLSSLNSYAVLK | < -0.25 |
| TTLHLFIDASATMPHKPESG | < -0.25 |
| TTLLLASSLCHRAEWDRAVG | < -0.25 |
| TTLVQRSAGSVWPDGGKPPS | < -0.25 |
| TTNRSIVAVNHD | < -0.25 |
| TTNSIYFNLQSELERTGLLN | < -0.25 |
| TTRPNW | < -0.25 |
| TTSAHLLGTTTCFQRFSTRP | < -0.25 |
| TTSITPASRITYPAAVCHCV | < -0.25 |
